1 molecule from article PMC8844851 (The Journal of Biological Chemistry, 2022) can be followed below.

The experiment concerns the target Gcd11(DII + III) fused to the LexA DNA-binding domain (S. cerevisiae). Put plainly: two-hybrid; as a8, in a modified reporter strain overexpressing Cdc123.

Results are given in words; binding and its absence hold for the method and conditions named. Binding can be weak; no strength is given.

B1: Cdc123 (yeast) (protein, UniProt Q05791 1-360)
chain: MSSQEYTTFIDIPVTRAQVEHCSYSFWSSLYPKYVPKSIVLKSLPKKFIQYLEQDGIKLPQEENSRSVYTEEIIRNEDNDYSDWEDDEDTATEFVQEVEPLIDFPELHQKLKDALNELGAVAPKLNWSAPRDATWILPNNTMKCNEVNELYLLLNASNYIMHDLQRAFKGCVDGDDIKGLKFDLVLRQWCDMNPALEFRVFVKNAHIVGATQRDLNYYDYLDELSDTFKDLIDEIVHDVVLPKFPDKSFVLDVYIPRPFNKIFIVDINPFARKTDSLLFSWNEIAAIAPPKNDVEDYELRLVTRHNTGRFASKEHSENHVPQDLVEASLNPEAIRELTQKWKELLSQQAKEESSDSENET
Regarding B1, the binding result is listed as “binds”.
